PubChem BioAssay AID2685 (National Center for Advancing Translational Sciences (NCATS), 2010)
The other results are listed elsewhere or left out. Shown are side measurements of this screen, not its main read-out; they come without a call. Compounds called inactive in the main read-out are mostly missing here. The note in brackets gives the kind of curve behind each potency; many fits are weak.

Assay: qHTS Assay for Lipid Storage Modulators in Drosophila S3 Cells;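 for cell number change: cells counted by Cell Tracker Red CMTPX staining in the red channel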
Conditions: BODIPY lipid droplet fluorescence, 18-24 h; for cell number change: measured here: cell count max response, cells fed with added oleic acid
Method in brief: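 Drosophila S3 cells got compounds at several concentrations plus oleic acid (400 uM solution). Laser-scanning cytometry with 488 nm excitation read lipid droplets at 500-530 nm and cells at 575-640 nm. Percent activity was relative to 20 uM Triacsin C.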

[1] = measured here: lipid fluorescence (Fed channel) AC50, cells fed with added oleic acid
[2] = measured here: cell number channel AC50, cells fed with added oleic acid

SMILES	cell number change [%]	AC50 [1]	AC50 [2]
CC(=O)c1cccc(CN2CCCC(N3CCN(c4ccccc4F)CC3)C2)c1 (configuration not stated)	-6.74	0.206 µM [rising, full curve, poor fit]	
CCc1ccc(C2c3[nH]c4ccccc4c3CCN2C(=O)CN2CCN(CC)CC2)cc1 (configuration not stated)	-0.848	0.116 µM [falling, full curve, poor fit]	
CN1CCc2c(sc3nc(SCC(=O)N4CCOCC4)n(-c4ccc(Cl)cc4)c(=O)c23)C1	9.55	0.00517 µM [falling, full curve, poor fit]	
Cc1c(NC(=O)C2(C)CCCCC2)c(=O)n(-c2ccccc2)n1C	6.5		
CCOC(=O)Cc1csc(NC(=O)c2cc3c(s2)CCCC3)n1		6.51 µM [falling, single point]	0.731 µM [falling, full curve, poor fit]
COc1cccc(NC(=O)CCC2CCN(C(=O)c3c(C)noc3C)CC2)c1	-3.58		
Cc1ccc(S(=O)(=O)N(C)CC(=O)N2CCC(C(N)=O)CC2)cc1	26.6		
COC(=O)c1ccccc1NC(=O)c1cc2ncc(Br)cn2n1	7	0.82 µM [rising, partial curve]	
COC(=O)CNc1cccc(C(F)(F)F)c1	20.7		
CCOC(=O)CN=C(NS(=O)(=O)c1ccc(Cl)cc1)c1ccccc1	-7.98	11.6 µM [falling, partial curve]	
Cc1onc(-c2c(F)cccc2Cl)c1C(=O)NC(=S)NC1CCSC1=O (configuration not stated)	-51.8	29.1 µM [falling, single point]	32.6 µM [falling, single point]
Cn1c(=O)c2c(nc(N3CCN(c4ccccc4)CC3)n2CCCc2ccccc2)n(C)c1=O		0.58 µM [rising, partial curve, poor fit]	
COc1cccc(/C=N/NC(=O)c2cnccn2)c1OC	-3.79	0.291 µM [rising, partial curve, poor fit]	
Cn1ncc2c(=O)n(CC(=O)NC34CC5CC(CC(C5)C3)C4)cnc21	-69.2	14.6 µM [falling, partial curve]	8.2 µM [falling, partial curve]
CC(=O)c1c(N2CCCC2)nc(=S)n(-c2ccccc2)c1C	-64.8		23.1 µM [falling, single point]
CCCN1C(=O)N(C)C(N(O)C(=O)NC)C1(C)C (configuration not stated)	18.8	0.259 µM [rising, full curve, poor fit]	
O=C(CCc1nc2ccccc2n1-c1ccccc1)NCCO	33.3	3.26 µM [falling, single point]	29.1 µM [rising, single point]
O=C(CN(C(=O)CNC(=O)c1ccco1)c1ccc(F)cc1)NC1CCCCC1	-39.7		23.1 µM [falling, partial curve]
Cc1cc(NS(=O)(=O)c2ccc(NC(=O)/C=C/c3cccc(Cl)c3)cc2)no1	4.69		
COc1ccc(N(C(=O)Cn2nnc(-c3ccc(C)o3)n2)C(C(=O)NC2CCCC2)c2ccncc2)cc1 (configuration not stated)	17.1	3.55 µM [rising, single point]	

SMILES	cell number change [%]	AC50 [1]	AC50 [2]
CCN(CC)c1ccc(NC(=O)CCNS(=O)(=O)c2ccc3c(c2)CCC(=O)N3)c(C)c1	1.15	5.8 µM [falling, single point]	
CCOC(=O)C1=C(CC)Nc2ccccc2N=C1NC(=O)c1ccc(S(=O)(=O)N2CCOCC2)cc1	23.5	32.6 µM [rising, single point]	
Cc1cccc(CSCc2ccc(C(=O)O)o2)c1	12.3	0.00461 µM [rising, full curve]	
Cc1ccc(C(O)(c2ccccc2)c2ccccc2C(C)N(C)C)c(C)c1 (configuration not stated)	-33.9	29.1 µM [falling, single point]	32.6 µM [falling, single point]
CCCCn1c(N)c(N(CCOC)C(=O)COc2ccc(C(C)=O)cc2)c(=O)[nH]c1=O	-20.4		0.82 µM [falling, full curve, poor fit]
Cc1ccccc1NC(=O)c1cn2c(nc3ccccc32)c(C#N)c1C	13.6	0.092 µM [rising, full curve, poor fit]	
COc1ccc(C(=O)NCCOc2ccccc2Cl)c(OC)c1OC	23.6	6.51 µM [falling, single point]	0.82 µM [rising, full curve, poor fit]
COc1ccc(C2CC(c3ccc(C)cc3)Nc3nc(N)nn32)cc1 (configuration not stated)	-1.29	0.461 µM [rising, full curve, poor fit]	
N#Cc1c(N2CCCC(O)C2)nc(N)c2c(N)nc3c(c12)CC(=O)N3C12CC3CC(CC(C3)C1)C2 (configuration not stated)	-53.5		29.1 µM [falling, single point]
Cn1c(Cn2c(=O)sc3ccccc32)nnc1SCc1ccccn1		16.4 µM [falling, partial curve]	
COc1cc(/C=C(\C#N)C(=O)Nc2ccccn2)ccc1O	-12.6	0.326 µM [falling, single point]	
CC(NCC1COc2ccccc2O1)C(=O)NCc1ccccc1 (configuration not stated)	20		0.00461 µM [rising, full curve, poor fit]
CC(C)(C)C(=O)N/C(N)=N/c1nc2ccccc2o1	-3.53		
CCC(=O)Nc1cccc2ccccc12	0.682	0.731 µM [falling, full curve, poor fit]	
N/C(=N\OC(=O)c1ccc(Cl)cc1)c1ccn[nH]1	40.2	29.1 µM [rising, single point]	23.1 µM [rising, partial curve]
CC(C)n1cnc2c(N(C)c3ccccc3)nc(N(CCN(C)C)Cc3ccccc3)nc21	-36.8	10.3 µM [falling, single point]	32.6 µM [falling, single point]
COc1ccc(NS(=O)(=O)c2cccc(-c3nnc4n3CCCCC4)c2)cc1	-22.4	0.291 µM [falling, full curve, poor fit]	
COc1ccc(S(=O)(=O)N(C)C)cc1NC(=O)COC(=O)CC1CCCC1	-15.8	6.51 µM [rising, single point]	
O=C(c1cccnc1NCc1ccc(F)cc1)N1CCOCC1	3.19	6.51 µM [falling, single point]	
O=C1c2ccccc2-c2nnc(-c3ccc(F)cc3)cc21	-10.7		

In the list so far, these have an aryl thioether with sulfur outside any ring.
SMILES	cell number change [%]	AC50 [1]	AC50 [2]
CN1CCc2c(sc3nc(SCC(=O)N4CCOCC4)n(-c4ccc(Cl)cc4)c(=O)c23)C1	9.55	0.00517 µM [falling, full curve, poor fit]	
Cn1c(Cn2c(=O)sc3ccccc32)nnc1SCc1ccccn1		16.4 µM [falling, partial curve]	

(more compounds)

SMILES	cell number change [%]	AC50 [1]	AC50 [2]
CSc1sc(-c2n[nH]c(=S)n2C)c2c1C=CCC2	12	20.6 µM [rising, single point]	
COc1cccc(OCc2cc(C(=O)N3CCN(c4ccccc4OC)CC3)no2)c1	22.6	14.6 µM [rising, partial curve, poor fit]	
CCc1nc(SCC(=O)Nc2c(C)n(C)n(-c3ccccc3)c2=O)n[nH]1	-2.35		
N#CCCn1nnc(-c2ccccc2F)n1	32	29.1 µM [falling, single point]	29.1 µM [rising, single point]
CCOc1ccc(N2C(=O)CC(Cc3ccccc3OC)C2=O)cc1 (configuration not stated)	8.42		
Cc1ccc(NS(=O)(=O)c2cccc(C(=O)NCCCN3CCOCC3)c2)cc1	-0.722		
CC(C)(C)C(=O)N1CCn2c1nc1ccccc12	-41.1	14.6 µM [falling, partial curve]	3.66 µM [falling, partial curve]
Cc1onc(C(=O)N2CCC(C(N)=O)CC2)c1-c1ccccc1Cl	-13.3	0.58 µM [falling, full curve, poor fit]	
CC(C)(CNC(=O)CCC1CCCC1)CNC(=O)CCC1CCCC1	-6.36	29.1 µM [falling, single point]	
COc1ccc(NC(=O)CN(C)C(=O)CCc2c[nH]c3ccccc23)cc1	20.5		
Cc1ccsc1/C=C/C1=Cc2c(sc(NC(=O)CSc3n[nH]c(N)n3)c2C#N)C(C)(C)C1	461	18.4 µM [rising, partial curve]	20.6 µM [rising, partial curve]
Cc1cccc(/C=N/n2c(C3CCCCC3)n[nH]c2=S)c1	-49.7	13 µM [falling, partial curve]	10.3 µM [falling, partial curve]
Cc1nc2sc(C#N)c(N)c2c2c1CCCC2	41.3		23.1 µM [rising, single point]
COc1ccc2c(C)cc(=O)oc2c1C	-6.5	1.46 µM [rising, partial curve]	1.46 µM [rising, partial curve]
O=C(Nc1ccccc1)c1ccc(N2CCN(c3ccccc3)CC2)c(S(=O)(=O)N2CCOCC2)c1	27.4	5.8 µM [rising, single point]	0.0326 µM [rising, full curve, poor fit]
O=C1c2ccccc2-c2nc3ccccc3nc21		2.91 µM [rising, full curve]	2.06 µM [rising, partial curve, poor fit]
COc1cccc(N(C(=O)c2sc(C)nc2C)C(C(=O)NCC2CCCO2)c2ccccc2)c1 (configuration not stated)	15.8		
O=C(/C=C/c1ccc(F)cc1)NC(=S)N1CCN(Cc2ccccc2)CC1	17.1	6.51 µM [rising, single point]	6.51 µM [rising, single point]
O=C(COC(=O)Cc1c[nH]c2ccccc12)NCCc1ccccc1	-22.5		
